39 compounds from PubChem BioAssay AID2685 (National Center for Advancing Translational Sciences (NCATS), 2010) can be followed below.

A short description of this assay: qHTS Assay for Lipid Storage Modulators in Drosophila S3 Cells.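 On cell number change: cells counted by Cell Tracker Red CMTPX staining in the red channel.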 The following applies: BODIPY lipid droplet fluorescence, 18-24 h; for cell number change: measured here: cell count max response, cells fed with added oleic acid. The gist of the method: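 Drosophila S3 cells got compounds at several concentrations plus oleic acid (400 uM solution). Laser-scanning cytometry with 488 nm excitation read lipid droplets at 500-530 nm and cells at 575-640 nm. Percent activity was relative to 20 uM Triacsin C.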

The mark [1] stands for this setting: measured here: lipid fluorescence (Fed channel) AC50, cells fed with added oleic acid.
The mark [2] stands for this setting: measured here: cell number channel AC50, cells fed with added oleic acid.

This is one part of the list. The main result of the screen is listed elsewhere. These columns were measured beside it and carry no call. The list favours compounds with an active or inconclusive main result. The note in brackets gives the kind of curve behind each potency; many fits are weak.

Consider `O=C(CN1CCOCC1)OCCCc1ccccc1`, for which the cell number change stood at 7.45%. For the same compound, the AC50 (in general, the concentration at which the activity in the assay is half-maximal) under setting [1] is 29.1 µM [falling, partial curve, poor fit].
For `COc1cc(-c2nnc(SC(C)C(=O)Nc3c(C)n(C)n(-c4ccccc4)c3=O)o2)cc(OC)c1OC` (stereo not given), the concentration at half-maximal activity (AC50) under setting [1] was 20.6 µM [falling, partial curve].
For `O=C(COc1ccccc1F)Nc1ccc(S(=O)(=O)N2CCCC2)cc1`, the cell number change is -43.3%. Also, the concentration at half-maximal activity (AC50) under setting [2] is 23.1 µM [falling, partial curve].
Consider `CCc1nc(C)ccc1OC(=O)C12CC3CC(CC(C3)C1)C2`, for which the cell number change is -24.1%. The AC50 under setting [1] was 16.4 µM [falling, single point].
As for `Cc1cc(/C=C2/C(=N)N3C(=NC2=O)SN=C3S(C)(=O)=O)c(C)n1-c1ccccc1`, the cell number change was -10.5%. Also, under setting [1], the AC50 is 0.058 µM [falling, full curve, poor fit].
As for `COc1ccc(OC2CCN(S(=O)(=O)c3ccc(OC)c(OC)c3)CC2)cc1`, the cell number change is -8.51%.
`O=C(Nc1ccc(Cl)cc1)C1CC(=O)n2c(nc3ccccc32)N1` (stereo not given): the cell number change is 5.02%. Moreover, under setting [2], the AC50 is 2.91 µM [rising, single point].
As to `CN(Cc1ccccc1)C(=O)COC(=O)C1=NNC(=O)CC1`, the cell number change is 17.2%. Also, the half-maximal activity concentration (AC50) under setting [2] was 0.326 µM [rising, single point].
As for `O=C(CC1Oc2ccccc2NC1=O)NC1CC1` (stereo not given), the cell number change is -13.6%. Under setting [1], the concentration at half-maximal activity (AC50) was 29.1 µM [falling, single point].
As for `COc1ccccc1NC(=O)/C=C/c1ccc2c(c1)OCO2`, the cell number change turned out to be 10.3%. Further, the AC50 under setting [1] was 0.517 µM [falling, single point].
Turning to `CC(C)CCN1C(=O)CC(NNC(=O)c2ccc(S(=O)(=O)N3CCCC3)cc2)C1=O` (stereo not given), the cell number change stood at 0.18%. Besides, the AC50 under setting [2] was 1.64 µM [falling, partial curve]. Moreover, under setting [1], the AC50 was 2.59 µM [falling, partial curve].
For `CCOC(=O)Cc1csc(NC(=O)CSc2nc3cccnc3n2CC)n1`, the cell number change worked out at 32.5%. The concentration at half-maximal activity (AC50) under setting [2] is 5.8 µM [rising, full curve, poor fit]. Besides, the AC50 under setting [1] is 2.31 µM [rising, full curve].
Take `O=C(Nc1ccc2oc(-c3ccc4ccccc4c3)nc2c1)c1cccs1`: the cell number change is -16%. Further, under setting [2], the AC50 is 1.16 µM [rising, partial curve].
In the case of `CCS(=O)(=O)c1ncc(Cl)c(C(=O)Nc2ccc(S(=O)(=O)N(C)c3ccccc3)cc2)n1`, the cell number change stood at 45.4%. For the same compound, under setting [2], the AC50 was 8.2 µM [rising, partial curve].
As to `Cc1ccc(/C=C/c2onc(C)c2S(=O)(=O)N2CCC(C(=O)N3CCN(C)CC3)CC2)cc1`, the cell number change is -6.27%.
Still for that read-out and setting: the figure for `CC(C)c1ccc(NS(=O)(=O)c2cn(C)c(=O)n(C)c2=O)cc1` is 3.92%; for `CC(C)NCCCOc1ccc(Cl)cc1Br` it is -22.8%.
As for `Cc1cc(C)n2[nH]c(=O)c(N=Nc3cccc(Cl)c3)c2n1`, the cell number change was -49.6%. Also, under setting [2], the AC50 was 5.8 µM [falling, partial curve, poor fit]. The AC50 under setting [1] was 6.51 µM [falling, partial curve, poor fit].
Take `Cc1noc(C)c1CSCC(=O)N1CCN(c2ccc(F)cc2)CC1`: the cell number change is -26.7%.
`CC(C)C(NCc1c(Cl)cccc1Cl)C(=O)O` (stereo not given): the cell number change was -24%. In addition, the AC50 under setting [2] is 3.66 µM [falling, full curve, poor fit]. Further, the AC50 under setting [1] is 4.11 µM [falling, full curve, poor fit].
As to `O=C(NCC(=O)N1CCC(Cc2ccccc2)CC1)c1ccc(Cl)cc1`, the cell number change was -16.4%. Moreover, the AC50 under setting [2] was 0.116 µM [falling, full curve, poor fit]. For the same compound, the AC50 under setting [1] was 29.1 µM [rising, single point].
Consider `O=C(Cc1ccc(Cl)cc1)Nc1ccc(N2CCN(C(=O)c3ccco3)CC2)cc1`, for which the cell number change is -35.1%. Also, under setting [2], the AC50 is 16.4 µM [falling, partial curve, poor fit].
Take `N#CCCn1cc(C(=O)O)c(-c2ccc3ccccc3c2)n1`: the cell number change stood at 23%. Besides, the half-maximal activity concentration (AC50) under setting [1] is 29.1 µM [rising, single point].
For the compound `C=CCOc1ccc2ccccc2c1CNc1ncn[nH]1`, the cell number change came to 205%. The concentration at half-maximal activity (AC50) under setting [2] was 0.411 µM [rising, full curve]. In addition, the AC50 under setting [1] was 0.517 µM [rising, full curve, poor fit].
In the case of `O=C(Cn1c(=O)n(-c2ccccc2)c(=O)n1CC(=O)N1CCCCC1)N1CCCCC1`, the cell number change was -9.32%. In addition, under setting [2], the AC50 is 0.731 µM [falling, partial curve, poor fit].
On to `O=C(NCc1ccccc1Cl)C1CCCN1C(=O)NC1CCCCC1` (stereo not given), for which the cell number change came to 10.1%. Moreover, the AC50 under setting [1] is 4.11 µM [falling, single point].
As to `C/C(=N\NC(=O)COc1ccc(C(C)(C)C)cc1)c1ccc(-n2ccnc2)cc1`, the cell number change is -60.6%. The AC50 under setting [2] is 23.1 µM [falling, single point]. For the same compound, the AC50 under setting [1] is 16.4 µM [falling, single point].
As to `CN(C)c1cc(N)c2ccccc2n1` (tested in a mixture with another compound), the cell number change amounted to 18.9%.
As to `COc1ccc(CCNC(=O)C2CCCN(S(=O)(=O)c3ccc(OC)cc3)C2)cc1` (stereo not given), the cell number change is 11.8%.
Take `CCOC(=O)c1cnc2c(Cl)c(Cl)ccc2c1N1CCN(C)CC1`: the cell number change turned out to be 4.11%. Besides, the AC50 under setting [1] was 1.64 µM [rising, partial curve, poor fit].
For the compound `Cc1cc(/N=C/N(C)C)on1`, the cell number change was -13.8%. Under setting [2], the concentration at half-maximal activity (AC50) is 6.51 µM [falling, single point].
`CCOC(=O)c1sc2cc([N+](=O)[O-])cc(SCCO)c2c1N`: the cell number change was -3.92%. In addition, the half-maximal activity concentration (AC50) under setting [1] is 16.4 µM [falling, single point].
As to `O=C(Nc1ccc(Oc2ccc(NC(=O)Nc3ccccc3Cl)cc2)cc1)Nc1ccccc1Cl`, the cell number change was 14.9%. Moreover, the half-maximal activity concentration (AC50) under setting [1] was 1.03 µM [falling, full curve].
As for `COc1ccc(S(=O)(=O)N(C)CC(=O)NCc2ccccc2)cc1OC`, the cell number change was -24.3%.
`Cc1cc(OCCCC(=O)NCCc2ccccn2)ccc1Cl`: the cell number change came out at 18.3%. For the same compound, the AC50 under setting [1] is 16.4 µM [rising, partial curve].
With `Fc1ccc(NC(=S)N2N=CCC2c2ccccc2)cc1` (stereo not given), the cell number change turned out to be 8.57%. Also, the AC50 under setting [2] is 0.231 µM [rising, partial curve, poor fit]. For the same compound, under setting [1], the AC50 was 2.59 µM [rising, full curve].
For `COC(=O)c1cc(NC(=O)c2cccnc2)cc(C(=O)OC)c1`, the cell number change is -23.4%.
Consider `CN(CCN1CCc2ccccc2C1)Cc1nc(Cc2ccccc2F)no1`, for which the cell number change was 20.4%. The AC50 under setting [1] was 20.6 µM [rising, partial curve, poor fit].
With `COc1ccc(CN2CCN(C(C)C(=O)N3CCc4ccccc43)CC2)cc1OC` (stereo not given), the cell number change is -3.81%.
